Test system: HLA molecules of melanoma, other tumor and normal tissue samples
Assay: Identification and relative quantitation of tumor associated peptides presented on the cell surface (HLA immunoprecipitation, label-free LC-MS)
Set-up: species or system human; key to Peptide Presentation (presentation score): very highly over-presented on tumors compared to a panel of normal tissues (+++); highly over-presented on tumors compared to a panel of normal tissues (++); over-presented on tumors compared to a panel of normal tissues (+)
Details: for Peptide Presentation (presentation score): over-presentation on tumors compared to a panel of normal tissues; for Additional Entities (additional tumor types on which the peptide was found) / relevant organs/diseases (additional tumor types on which the peptide was found): over-presented on more than 5% of the measured tumor samples, or presented on more than 5% with ratio of geometric means tumor vs normal tissues larger than 3

Substance | Peptide Presentation (presentation score) | Additional Entities (additional tumor types on which the peptide was found) | relevant organs/diseases (additional tumor types on which the peptide was found) | further results
192 (KLFTQIFGV; listed as Homo sapiens) [compound 192] | +++ | SCLC | HCC | 
119 (SLGLGFISRV; listed as Homo sapiens) [compound 119] | ++ |  | BRCA | 
209 (SILDGLIHL; listed as Homo sapiens) [compound 209] | ++ |  | CLL, NHL, AML | 
194 (TLDDIMAAV; listed as Homo sapiens) [compound 194] | ++ |  | NSCLC, SCLC, RCC, Brain Cancer, CRC, CLL, NHL, AML, BRCA, Urinary bladder cancer, Uterine Cancer, Gallbladder Cancer, Bile Duct Cancer | 
145 (TLPNIYVTL; listed as Homo sapiens) [compound 145] |  |  | NHL, AML | 
36 (SVNGFISTL; listed as Homo sapiens) [compound 36] | +++ |  | AML | 
79 (AVDNILLKL; listed as Homo sapiens) [compound 79] | +++ |  |  | 
140 (RLEAYLARV; listed as Homo sapiens) [compound 140] | + |  |  | 
213 (LLDPTNVFI; listed as Homo sapiens) [compound 213] | + | GC, OC, Esophageal Cancer, HNSCC | PrC, NHL, AML, Urinary bladder cancer | 
168 (KLLAATLLL; listed as Homo sapiens) [compound 168] | + | HCC | RCC, AML, Esophageal Cancer | 
155 (GLAGFFASV; listed as Homo sapiens) [compound 155] | ++ |  | HCC, NHL, BRCA, Esophageal Cancer, Urinary bladder cancer, Uterine Cancer | 
223 (FLETNVPLL; listed as Homo sapiens) [compound 223] | + |  | Uterine Cancer, Gallbladder Cancer, Bile Duct Cancer | 
106 (TLSEICEFI; listed as Homo sapiens) [compound 106] | +++ |  |  | 
218 (STLHLVLRL; listed as Homo sapiens) [compound 218] | + |  | RCC, GC, HCC, PC | 
167 (KVLGDVIEV; listed as Homo sapiens) [compound 167] |  |  | RCC, Brain Cancer | 
210 (LLPELRDWGV; listed as Homo sapiens) [compound 210] |  | HCC, CLL | NHL | 
129 (VLPDDLSGV; listed as Homo sapiens) [compound 129] | + | HCC |  | 
1 (FLDVKELML; listed as Homo sapiens) [compound 1] | +++ | Brain Cancer, OC | RCC, HCC, Uterine Cancer, Gallbladder Cancer, Bile Duct Cancer | 
SEQ ID NO.: 120 (QLMEGKVVL; listed as Homo sapiens) |  |  |  | over-presentation in different cancer tissues (HLA-A*02 positive normal and tumor samples, FIG. 1E-1J): over-presentation
134 (LLDEVLHTM; listed as Homo sapiens) [compound 134] | +++ |  |  | 
186 (FLDHEMVFL; listed as Homo sapiens) [compound 186] |  | Uterine Cancer | CLL, NHL, AML, Urinary bladder cancer | 
5 (ILDEGHILQL; listed as Homo sapiens) [compound 5] | +++ |  |  | 
132 (FLDASGAKL; listed as Homo sapiens) [compound 132] | + |  |  | 
151 (FLGEPASYLYL; listed as Homo sapiens) [compound 151] |  | HCC, BRCA, OC, Uterine Cancer | NHL | 
234 (KVPEIEVTV; listed as Homo sapiens) [compound 234] |  | GC, CLL, BRCA, OC, Gallbladder Cancer, Bile Duct Cancer | NHL, AML, Uterine Cancer | 
32 (GLDIITNKV; listed as Homo sapiens) [compound 32] | ++ |  | NHL | 
201 (SLIDRTIKM; listed as Homo sapiens) [compound 201] | +++ |  |  | 
219 (FLDSEVSEL; listed as Homo sapiens) [compound 219] |  | SCLC, GC | NHL, AML, Urinary bladder cancer, Uterine Cancer | 

Substance | Peptide Presentation (presentation score) | Additional Entities (additional tumor types on which the peptide was found) | relevant organs/diseases (additional tumor types on which the peptide was found) | further results
9 (SLAGLVLYV; listed as Homo sapiens) [compound 9] | +++ |  |  | 
13 (IQSETTVTV; listed as Homo sapiens) [compound 13] | ++ | HNSCC |  | 
188 (VVVDPIQSV; listed as Homo sapiens) [compound 188] | +++ |  |  | 
125 (YLFAFLNHL; listed as Homo sapiens) [compound 125] | +++ |  | AML, OC, Uterine Cancer | 
165 (ALIEVLQPLI; listed as Homo sapiens) [compound 165] | ++ | GC, HNSCC | Urinary bladder cancer | 
2 (VLLGENVEL; listed as Homo sapiens) [compound 2] | +++ |  | NHL, BRCA | 
198 (EVVDKINQV; listed as Homo sapiens) [compound 198] | +++ |  | RCC | 
71 (SLDEVAVSL; listed as Homo sapiens) [compound 71] | +++ |  |  | 
SEQ ID NO.: 1 (FLDVKELML; listed as Homo sapiens) |  |  |  | over-presentation in melanoma versus normal tissues (18 melanoma vs panel of normal tissues, FIG. 1A-1C): over-presentation
64 (SLGPIMLTKI; listed as Homo sapiens) [compound 64] | +++ | HCC |  | 
26 (KIEDLIKYL; listed as Homo sapiens) [compound 26] | +++ |  |  | 
8 (SIIPYLLEA; listed as Homo sapiens) [compound 8] | +++ | HCC, CLL, NHL, HNSCC | Uterine Cancer | 
98 (NLPNTNSILGV; listed as Homo sapiens) [compound 98] | +++ |  |  | 
45 (FVYGEPREL; listed as Homo sapiens) [compound 45] | +++ |  |  | 
49 (ALLSQDFEL; listed as Homo sapiens) [compound 49] | +++ |  |  | 
232 (KILPDLNTV; listed as Homo sapiens) [compound 232] |  | HCC | Brain Cancer, Urinary bladder cancer | 
136 (FAYDGKDYIAL; listed as Homo sapiens) [compound 136] | ++ | RCC, Gallbladder Cancer, Bile Duct Cancer, NHL |  | 
87 (IIDPPLHGQLL; listed as Homo sapiens) [compound 87] | +++ |  |  | 
72 (TLLEVDAIVNA; listed as Homo sapiens) [compound 72] | +++ |  |  | 
81 (FLDDGNQML; listed as Homo sapiens) [compound 81] | +++ |  |  | 
180 (KLAEALYIA; listed as Homo sapiens) [compound 180] | + | HNSCC | PrC, BRCA, Esophageal Cancer, Urinary bladder cancer | 
74 (GTIPLIESL; listed as Homo sapiens) [compound 74] | +++ |  |  | 
100 (NLREILQNV; listed as Homo sapiens) [compound 100] | +++ | HCC |  | 
122 (YVDDFGVSV; listed as Homo sapiens) [compound 122] | ++ |  | AML | 
121 (FLEDLVPYL; listed as Homo sapiens) [compound 121] | + |  | CLL, NHL, AML | 
178 (FAYDGKDYIA; listed as Homo sapiens) [compound 178] | +++ | RCC, HNSCC | BRCA, Esophageal Cancer, OC | 
96 (LLDMSLVKL; listed as Homo sapiens) [compound 96] | +++ |  |  | 

— patent US10640547B2, “Immunotherapy against melanoma and other cancers” (IMMATICS BIOTECHNOLOGIES GMBH, priority 2016, dated 2020)
